What follows is the remainder of the data, with few or none of the hits. Calls of active or inactive are those of the source. Rule as the data show it: active = growth inhibition above about 70%; inactive = the rest.
Assay: NCI Yeast Anticancer Drug Screen. Data for the rad14 strain (AID 159);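 also: 0% = growth of vehicle-treated control cultures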
Settings: S. cerevisiae rad14 strain growth inhibition, stronger effect = higher value
Experimental: Growth inhibition of yeast strains with defined genetic alterations is measured as a screen for potential anti-cancer activity. Selected strains with alterations in DNA damage repair or cell cycle control were exposed to compounds and growth inhibition was measured relative to vehicle treated controls. The strain used in this assay is rad14

Measured: growth inhibition

Cc1cc[c]([Sb]2[O]C(CO)C(C(O)C(O)C(=O)O)[O]2)cc1 (stereo not given)
inactive: at 1.2 µM -2% | at 3.7 µM -6% | at 11.0 µM 4% | at 33.0 µM 6% | at 100.0 µM 8%

COc1cc2c3cc1Oc1c(O)c(OC)cc4c1[C@H](Cc1ccc(cc1)Oc1cc(ccc1O)C[C@H]3N(C)CC2)N(C)CC4
inactive: at 1.2 µM -1% | at 3.7 µM -4% | at 11.0 µM -2% | at 33.0 µM -6% | at 100.0 µM -4%

O=P1(NNc2ncccn2)SC(NN=C2CCCCC2)=NC12CCCCC2 (stereo not given)
inactive: at 1.2 µM -1% | at 3.7 µM 1% | at 11.0 µM -1% | at 33.0 µM -3% | at 100.0 µM 6%

CCOC(=O)CNP(=S)(OCC)OCC
inactive: at 1.2 µM 0% | at 3.7 µM 2% | at 11.0 µM 5% | at 33.0 µM 6% | at 100.0 µM 5%

O=C(CCN1CC1)Nc1ccccc1
inactive: at 1.2 µM -1% | at 3.7 µM -6% | at 11.0 µM -2% | at 33.0 µM 2% | at 100.0 µM 52%

CCCCN(CCCC)CC(=O)c1ccc(I)cc1
inactive: at 1.2 µM 1% | at 3.7 µM 7% | at 11.0 µM 23% | at 33.0 µM 25% | at 100.0 µM 52%

O=C(NCP(=O)(Oc1ccccc1)Oc1ccccc1)OCc1ccccc1
inactive: at 1.2 µM -2% | at 3.7 µM 1% | at 11.0 µM -4% | at 33.0 µM -5% | at 100.0 µM 0%

O=C(O)C(O)C(O)C1[O][Sb][O]C1CO (stereo not given)
inactive: at 1.2 µM 0% | at 3.7 µM 13% | at 11.0 µM 3% | at 33.0 µM 3% | at 100.0 µM 4%

From PubChem BioAssay (NCI)
